Measurements: US9815852B2, “Macrocyclic compounds and methods of treatment” (University of Florida Research Foundation, Inc., priority 2014, dated 2017)
For at least one compound, name, drawing or mass did not settle the structure. Some results were stated once for a whole list of compounds, not compound by compound.

system: class I HDACs; assay: HDAC enzyme inhibitory assay, class I HDACs overall; assay type: biochemical; conditions: class I HDACs tested (HDAC1, 2, 3, 8)
Procedure: Enzyme inhibitory assays were carried out essentially as follows. In brief, compounds were incubated with the appropriate HDAC enzyme, the appropriate HDAC substrate, bovine serum albumin, and HDAC buffer. Duplicate reactions were carried out at 37° C. for 30 min. The reactions were quenched at the end of the incubation period with the addition of HDAC developer. […] The % inhibitory activity was calculated according to the equation (F−Fb)/(Ft−Fb), where F—fluorescent intensity of compound treated wells, Fb—fluorescent intensity of blank wells, Ft—fluorescent intensity of solvent control wells. IC50 values were calculated using GraphPad Prism.

Row | Structure (SMILES) | HDAC inhibition, potency in words
1 | CC(C)[C@@H]1NC(=O)[C@]2(C)CSC(=N2)c2csc(n2)CNC(=O)C[C@@H](c2cccc(CCS)c2)OC1=O [Compound 12] | reduced activity
2 | C[C@@]12CSC(=N1)c1csc(n1)CNC(=O)C[C@@H](/C=C/CCS)OC(=O)[C@H](CCN)NC2=O [Compound 7] | decreased activity for all HDACs tested
3 | CC(C)(C)OC(=O)n1cnc(C[C@@H]2NC(=O)[C@]3(C)CSC(=N3)c3csc(n3)CNC(=O)C[C@@H](/C=C/CCS)OC2=O)c1 [Compound 11] | very little change in potency or selectivity
